The target in one assay is T1, 6xHis-tag PLCβ1 (UniProt P10687).
T1 sequence: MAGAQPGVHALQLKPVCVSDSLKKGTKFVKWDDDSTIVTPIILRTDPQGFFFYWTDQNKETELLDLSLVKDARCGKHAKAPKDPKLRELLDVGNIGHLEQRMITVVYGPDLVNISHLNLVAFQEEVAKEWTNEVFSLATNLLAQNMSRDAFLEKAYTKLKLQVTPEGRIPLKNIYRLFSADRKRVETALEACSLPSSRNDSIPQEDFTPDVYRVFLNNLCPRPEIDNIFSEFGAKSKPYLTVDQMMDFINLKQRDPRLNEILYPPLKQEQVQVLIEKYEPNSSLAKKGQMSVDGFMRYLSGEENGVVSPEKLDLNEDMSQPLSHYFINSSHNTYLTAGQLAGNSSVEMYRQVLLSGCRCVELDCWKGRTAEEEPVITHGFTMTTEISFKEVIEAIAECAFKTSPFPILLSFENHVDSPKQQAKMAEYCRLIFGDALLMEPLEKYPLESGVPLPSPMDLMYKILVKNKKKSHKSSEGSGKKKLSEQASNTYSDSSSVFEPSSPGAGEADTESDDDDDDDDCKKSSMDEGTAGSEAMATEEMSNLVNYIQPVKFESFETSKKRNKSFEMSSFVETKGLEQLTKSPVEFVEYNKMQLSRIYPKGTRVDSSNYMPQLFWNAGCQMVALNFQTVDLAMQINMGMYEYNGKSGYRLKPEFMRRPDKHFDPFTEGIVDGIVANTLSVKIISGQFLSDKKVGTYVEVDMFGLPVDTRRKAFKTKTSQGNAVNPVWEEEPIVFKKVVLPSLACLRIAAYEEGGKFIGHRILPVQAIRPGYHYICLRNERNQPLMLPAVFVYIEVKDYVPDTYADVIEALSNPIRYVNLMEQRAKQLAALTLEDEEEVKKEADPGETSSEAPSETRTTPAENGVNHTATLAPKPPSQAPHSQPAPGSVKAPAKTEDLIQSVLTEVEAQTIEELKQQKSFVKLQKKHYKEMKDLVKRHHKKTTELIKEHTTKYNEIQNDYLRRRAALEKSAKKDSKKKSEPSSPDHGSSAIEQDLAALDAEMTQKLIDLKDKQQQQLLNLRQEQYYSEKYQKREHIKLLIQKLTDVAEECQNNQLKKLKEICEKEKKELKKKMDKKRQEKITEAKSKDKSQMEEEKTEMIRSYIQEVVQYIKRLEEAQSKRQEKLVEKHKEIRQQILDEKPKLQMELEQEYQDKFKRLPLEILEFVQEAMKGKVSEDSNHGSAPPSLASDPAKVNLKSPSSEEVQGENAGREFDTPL
Put plainly: pull-down; nickel beads on cell lysate containing PLCβ-his and Gαq Q209L, with or without added HEK293 cell lysate expressing TRPM8, 4°C overnight; bound Gαq detected with anti-Gαq.

Amino acid sequences for entries named in this document (tags omitted). A change or cut given only in a name is not applied to a line headed by its entry.
UniProt Q8R455: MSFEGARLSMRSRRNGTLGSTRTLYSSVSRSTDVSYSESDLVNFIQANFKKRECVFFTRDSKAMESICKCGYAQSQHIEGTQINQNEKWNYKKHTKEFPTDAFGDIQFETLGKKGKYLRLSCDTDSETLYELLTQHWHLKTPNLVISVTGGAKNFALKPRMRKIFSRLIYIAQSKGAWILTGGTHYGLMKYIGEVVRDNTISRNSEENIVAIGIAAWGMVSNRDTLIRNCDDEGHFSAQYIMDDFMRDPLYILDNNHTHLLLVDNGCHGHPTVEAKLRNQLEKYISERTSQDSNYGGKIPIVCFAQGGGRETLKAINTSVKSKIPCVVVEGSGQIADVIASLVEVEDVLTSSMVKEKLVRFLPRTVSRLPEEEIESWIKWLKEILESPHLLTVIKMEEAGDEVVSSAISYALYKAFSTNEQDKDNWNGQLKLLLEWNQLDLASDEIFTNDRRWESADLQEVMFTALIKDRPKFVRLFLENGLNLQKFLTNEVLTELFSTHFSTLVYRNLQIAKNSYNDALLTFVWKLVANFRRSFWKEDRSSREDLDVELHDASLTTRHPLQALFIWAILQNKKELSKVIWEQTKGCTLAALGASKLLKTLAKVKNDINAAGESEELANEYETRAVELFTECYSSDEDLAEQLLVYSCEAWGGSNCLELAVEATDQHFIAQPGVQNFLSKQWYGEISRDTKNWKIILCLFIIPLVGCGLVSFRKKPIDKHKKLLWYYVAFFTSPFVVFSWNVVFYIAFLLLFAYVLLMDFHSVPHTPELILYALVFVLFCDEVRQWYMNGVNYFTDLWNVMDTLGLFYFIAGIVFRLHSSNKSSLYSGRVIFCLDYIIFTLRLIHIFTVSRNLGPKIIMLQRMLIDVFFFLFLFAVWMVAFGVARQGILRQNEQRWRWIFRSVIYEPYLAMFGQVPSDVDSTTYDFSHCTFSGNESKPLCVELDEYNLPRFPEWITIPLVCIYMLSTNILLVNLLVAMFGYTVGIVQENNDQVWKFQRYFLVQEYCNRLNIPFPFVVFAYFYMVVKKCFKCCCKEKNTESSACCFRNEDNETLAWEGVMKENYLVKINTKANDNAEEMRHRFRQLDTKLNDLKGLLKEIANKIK
UniProt P50148: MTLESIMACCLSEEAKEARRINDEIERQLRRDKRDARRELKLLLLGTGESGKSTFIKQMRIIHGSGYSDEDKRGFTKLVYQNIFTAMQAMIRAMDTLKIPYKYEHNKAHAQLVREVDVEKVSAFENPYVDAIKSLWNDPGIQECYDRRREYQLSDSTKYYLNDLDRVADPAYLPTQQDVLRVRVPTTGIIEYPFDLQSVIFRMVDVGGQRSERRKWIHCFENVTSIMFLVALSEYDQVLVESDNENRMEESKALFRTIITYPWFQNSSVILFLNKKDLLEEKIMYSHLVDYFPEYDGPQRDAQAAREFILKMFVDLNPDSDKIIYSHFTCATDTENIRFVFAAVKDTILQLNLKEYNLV
UniProt P35367: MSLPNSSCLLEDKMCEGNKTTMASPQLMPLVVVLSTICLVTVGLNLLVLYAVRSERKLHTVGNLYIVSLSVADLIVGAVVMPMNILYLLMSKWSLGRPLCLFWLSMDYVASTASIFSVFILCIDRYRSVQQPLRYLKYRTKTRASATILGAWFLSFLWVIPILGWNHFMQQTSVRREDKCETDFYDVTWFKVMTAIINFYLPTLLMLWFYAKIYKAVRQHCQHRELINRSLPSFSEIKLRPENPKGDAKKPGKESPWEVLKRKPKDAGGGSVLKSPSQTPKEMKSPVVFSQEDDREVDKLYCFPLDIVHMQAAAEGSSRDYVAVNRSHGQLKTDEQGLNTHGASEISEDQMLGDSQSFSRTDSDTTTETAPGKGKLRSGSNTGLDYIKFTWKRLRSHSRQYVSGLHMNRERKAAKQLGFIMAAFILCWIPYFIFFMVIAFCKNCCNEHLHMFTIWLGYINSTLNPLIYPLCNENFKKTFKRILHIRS

Another assay has as its target Rat TRPM8-V5-His (rat) (UniProt Q8R455). Put plainly: pull-down; nickel beads (Ni-NTA) on lysate of HEK293 cells expressing TRPM8-V5-His with HA-B2R or HA-H1R; 20mM Tris-HCl pH7.4, 300mM NaCl, 1% NP-40, 10% glycerol, 0.2mM EDTA, 20mM imidazole, 4°C overnight; blot with anti-HA and anti-V5.
For a further assay, the target named is Gαq Q209L (UniProt P50148). Put plainly: pull-down; nickel beads on cell lysate containing PLCβ-his and Gαq Q209L, with or without added HEK293 cell lysate expressing TRPM8, 4°C overnight; bound Gαq detected with anti-Gαq.

These are yes or no findings as the source states them, for the method shown. Binding seen in cells or lysates may run through a third protein. Some results given as binding are weak or reduced against the parent protein; the word gives no strength. For part of these data: Tags and fused reporters may be left off the sequences shown.

In the case of Gαq Q209L (from UniProt P50148 1-359), the binding result with 6xHis-tag PLCβ1 is “binds”. As for “HA-H1R (histamine receptor H1R) (from UniProt P35367 1-487)”, the binding result in the assay with Rat TRPM8-V5-His (rat) was “no binding”.

Take “Rat TRPM8-V5-His (from UniProt Q8R455 1-1104)”: in the assay with Gαq Q209L, the binding entry is listed as “binds”.
